Positions count from the first letter of the chain named. The list shows a part of the results. For some of these results: At the low end of the ranking the order means little. For some of these results: Construct or isoform of the protein are uncertain.
What was measured:
Conditions in all cases: yeast three-hybrid, YBZ-1, SC-Leu-His + 0.5 mM 3-AT, 4 days
[1] = biological target: T1, PUM1 PUF domain R1-QFR R2-VFQ R6-SWD S863Q + R864F + Q867R + N899V + Y900F + N1043S + Y1044W + Q1047D (UniProt Q14671)
T1 sequence: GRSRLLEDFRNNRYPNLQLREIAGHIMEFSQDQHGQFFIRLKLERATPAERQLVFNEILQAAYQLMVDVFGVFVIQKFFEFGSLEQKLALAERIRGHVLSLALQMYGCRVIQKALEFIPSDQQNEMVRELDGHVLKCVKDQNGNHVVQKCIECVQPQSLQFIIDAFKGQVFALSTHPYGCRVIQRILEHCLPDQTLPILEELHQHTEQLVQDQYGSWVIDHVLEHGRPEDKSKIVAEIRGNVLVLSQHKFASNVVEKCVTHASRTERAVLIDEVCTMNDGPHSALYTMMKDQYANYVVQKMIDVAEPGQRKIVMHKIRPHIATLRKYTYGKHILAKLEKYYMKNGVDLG

[2] = biological target: T2, PUM1 PUF domain R1-QFR R2-VFQ R7-NPG S863Q + R864F + Q867R + N899V + Y900F + S1079N + N1080P + E1083G (UniProt Q14671)
T2 sequence: T1 sequence with S216N, W217Y, D220Q, S252N, N253P, E256G

[3] = biological target: T3, PUM1 PUF domain R2-VFQ R3-THE R4-TFR N899V + Y900F + C935T + R936H + Q939E + N971T + H972F + Q975R (UniProt Q14671)
T3 sequence: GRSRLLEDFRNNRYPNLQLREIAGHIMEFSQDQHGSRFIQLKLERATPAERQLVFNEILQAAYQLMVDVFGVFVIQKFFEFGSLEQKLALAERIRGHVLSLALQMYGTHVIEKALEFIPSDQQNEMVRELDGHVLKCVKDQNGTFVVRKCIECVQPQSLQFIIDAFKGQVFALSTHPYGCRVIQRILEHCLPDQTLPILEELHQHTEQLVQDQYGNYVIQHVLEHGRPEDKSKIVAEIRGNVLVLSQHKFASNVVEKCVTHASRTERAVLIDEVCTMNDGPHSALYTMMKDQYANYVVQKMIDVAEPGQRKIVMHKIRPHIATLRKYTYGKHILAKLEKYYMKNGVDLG

[4] = biological target: T4, PUM1 PUF domain R3-THE R4-TFR C935T + R936H + Q939E + N971T + H972F + Q975R (UniProt Q14671)
T4 sequence: T3 sequence with V72N, F73Y

[5] = biological target: T5, PUM1 PUF domain R3-THE R4-TFR R7-NPG C935T + R936H + Q939E + N971T + H972F + Q975R + S1079N + N1080P + E1083G (Homo sapiens) (UniProt Q14671)
T5 sequence: T3 sequence with V72N, F73Y, S252N, N253P, E256G

[6] = biological target: T6, PUM1 PUF domain R5-PHQ R6-SWD C1007P + R1008H + N1043S + Y1044W + Q1047D (UniProt Q14671)
T6 sequence: T1 sequence with Q36S, F37R, R40Q, V72N, F73Y, C180P, R181H

[7] = biological target: T7, PUM1 PUF domain R6-SWD R7-NPG N1043S + Y1044W + Q1047D + S1079N + N1080P + E1083G (Homo sapiens) (UniProt Q14671)
T7 sequence: T1 sequence with Q36S, F37R, R40Q, V72N, F73Y, S252N, N253P, E256G

[8] = biological target: T8, PUM1 PUF domain R3-THE R4-TFR R7-NPG C935T + R936H + Q939E + N971T + H972F + Q975R + S1079N + N1080P + E1083G (UniProt Q14671)
T8 sequence: T3 sequence with V72N, F73Y, S252N, N253P, E256G

Row | Sequence | binding signal (log2 enrichment (interaction score)) [1] | binding signal (log2 enrichment (interaction score)) [2] | binding signal (log2 enrichment (interaction score)) [3] | binding signal (log2 enrichment (interaction score)) [4] | binding signal (log2 enrichment (interaction score)) [5] | binding signal (log2 enrichment (interaction score)) [6] | binding signal (log2 enrichment (interaction score)) [7] | binding signal (log2 enrichment (interaction score)) [8]
1 | GGCUAGAACUAGUGGAUCCCCCGGCGCCCGGCGGCUCGAGCCCGGGUAAGUGGACAUCGUCUGCAUGCCGCCGGGCGCCAUGCCUGCAGGUCGACUCUAGAAAACAUG | -5.94 | < -5.68 | -6.09 | -8.52 | < -1.61 | -8.15 | -0.73 | –
2 | GGCUAGAACUAGUGGAUCCCCCGGCGCCCGGCGGCUCGAGCCCGGGUAAGUUGAAAACGUCUGCAUGCCGCCGGGCGCCAUGCCUGCAGGUCGACUCUAGAAAACAUG | – | -5.65 | -5.47 | – | – | -8.99 | -0.5 | -2.04
3 | GGCUAGAACUAGUGGAUCCCCCGGCGCCCGGCGGCUCGAGCCCGGGUAAGUUGAAGUAGUCUGCAUGCCGCCGGGCGCCAUGCCUGCAGGUCGACUCUAGAAAACAUG | -6.36 | -5.18 | -5.42 | -6.83 | -1.91 | -8.65 | -1.42 | –
4 | GGCUAGAACUAGUGGAUCCCCCGGCGCCCGGCGGCUCGAGCCCGGGUAAGUCAGUAGAGUCUGCAUGCCGCCGGGCGCCAUGCCUGCAGGUCGACUCUAGAAAACAUG | -5.82 | – | -5.19 | – | – | – | – | –
5 | GGCUAGAACUAGUGGAUCCCCCGGCGCCCGGCGGCUCGAGCCCGGGUAAGUGGAAGAUGUCUGCAUGCCGCCGGGCGCCAUGCCUGCAGGUCGACUCUAGAAAACAUG | -6.37 | -6.47 | -5.53 | – | -1.74 | -6.96 | – | –
6 | GGCUAGAACUAGUGGAUCCCCCGGCGCCCGGCGGCUCGAGCCCGGGUAAGUGGAGGUAGUCUGCAUGCCGCCGGGCGCCAUGCCUGCAGGUCGACUCUAGAAAACAUG | < -7.81 | -4.94 | -5.71 | -6.89 | < -1.96 | – | – | –
7 | GGCUAGAACUAGUGGAUCCCCCGGCGCCCGGCGGCUCGAGCCCGGGUAAGUGUACGAAGUCUGCAUGCCGCCGGGCGCCAUGCCUGCAGGUCGACUCUAGAAAACAUG | -6.31 | -6.17 | – | -5.17 | – | -9.56 | -0.98 | -2.33
8 | GGCUAGAACUAGUGGAUCCCCCGGCGCCCGGCGGCUCGAGCCCGGGUAAGUCUGUAACGUCUGCAUGCCGCCGGGCGCCAUGCCUGCAGGUCGACUCUAGAAAACAUG | -6.04 | – | – | – | – | – | – | –
9 | GGCUAGAACUAGUGGAUCCCCCGGCGCCCGGCGGCUCGAGCCCGGGUAAGUGGAUGGAGUCUGCAUGCCGCCGGGCGCCAUGCCUGCAGGUCGACUCUAGAAAACAUG | -6.35 | < -6.1 | – | – | – | < -7.34 | – | –
10 | GGCUAGAACUAGUGGAUCCCCCGGCGCCCGGCGGCUCGAGCCCGGGUAAGUUGACGACGUCUGCAUGCCGCCGGGCGCCAUGCCUGCAGGUCGACUCUAGAAAACAUG | -6.42 | -5.25 | -5.31 | -7.01 | -1.74 | – | -0.82 | –
11 | GGCUAGAACUAGUGGAUCCCCCGGCGCCCGGCGGCUCGAGCCCGGGUAAGUUUAAGAAGUCUGCAUGCCGCCGGGCGCCAUGCCUGCAGGUCGACUCUAGAAAACAUG | -6.45 | -7.06 | -5.45 | -6.37 | – | -7.51 | -0.54 | –
12 | GGCUAGAACUAGUGGAUCCCCCGGCGCCCGGCGGCUCGAGCCCGGGUAAGUGGACGUAGUCUGCAUGCCGCCGGGCGCCAUGCCUGCAGGUCGACUCUAGAAAACAUG | -6.17 | -4.15 | -3.93 | -6.03 | -1.65 | -8.82 | -0.78 | –
13 | GGCUAGAACUAGUGGAUCCCCCGGCGCCCGGCGGCUCGAGCCCGGGUAAGUUGACGUCGUCUGCAUGCCGCCGGGCGCCAUGCCUGCAGGUCGACUCUAGAAAACAUG | -4.61 | -4.76 | -5.49 | -6.53 | -1.79 | -8.07 | -0.55 | –
14 | GGCUAGAACUAGUGGAUCCCCCGGCGCCCGGCGGCUCGAGCCCGGGUAAGUUGGGGAAGUCUGCAUGCCGCCGGGCGCCAUGCCUGCAGGUCGACUCUAGAAAACAUG | -4.13 | – | – | – | – | – | – | –
15 | GGCUAGAACUAGUGGAUCCCCCGGCGCCCGGCGGCUCGAGCCCGGGUAAGUACACAAUGUCUGCAUGCCGCCGGGCGCCAUGCCUGCAGGUCGACUCUAGAAAACAUG | -5.48 | – | – | – | – | – | – | –
16 | GGCUAGAACUAGUGGAUCCCCCGGCGCCCGGCGGCUCGAGCCCGGGUAAGUUUAAAUAGUCUGCAUGCCGCCGGGCGCCAUGCCUGCAGGUCGACUCUAGAAAACAUG | -6.22 | -6.15 | -5.66 | -6.03 | -1.92 | -8.33 | -0.86 | –

Pulled one by one from above, 2 records:
Row | Sequence | binding signal (log2 enrichment (interaction score)) [1] | binding signal (log2 enrichment (interaction score)) [2] | binding signal (log2 enrichment (interaction score)) [3] | binding signal (log2 enrichment (interaction score)) [4] | binding signal (log2 enrichment (interaction score)) [5] | binding signal (log2 enrichment (interaction score)) [6] | binding signal (log2 enrichment (interaction score)) [7] | binding signal (log2 enrichment (interaction score)) [8]
2 | GGCUAGAACUAGUGGAUCCCCCGGCGCCCGGCGGCUCGAGCCCGGGUAAGUUGAAAACGUCUGCAUGCCGCCGGGCGCCAUGCCUGCAGGUCGACUCUAGAAAACAUG | – | -5.65 | -5.47 | – | – | -8.99 | -0.5 | -2.04
11 | GGCUAGAACUAGUGGAUCCCCCGGCGCCCGGCGGCUCGAGCCCGGGUAAGUUUAAGAAGUCUGCAUGCCGCCGGGCGCCAUGCCUGCAGGUCGACUCUAGAAAACAUG | -6.45 | -7.06 | -5.45 | -6.37 | – | -7.51 | -0.54 | –

— paper PMC8384837
